From the supplement of paper PMC12823440, “Inhibitors supercharge kinase turnover through native proteolytic circuits” (Nature, 2025)
Counter-ions that a name gives are not always drawn. Some of the results follow. Hit calls seldom repeat between salt and free forms of one compound.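 Kinases were expressed as nanoluciferase fusions in K562 cells and luminescence was read every 4 h between 2 and 18 h as percent of control, DMSO set to 100% and a positive control to 0%. A time point counts as decreased when the signal drops significantly (2 sigma). The hit call is the authors' own, does not follow from the count of time points alone, and its rule is not shown.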

Chains of the proteins cited; added tags and fusions are not shown. Lines headed by an entry give the natural chain unless they say otherwise; changes in a name come on top.
UniProt Q16288, whole entry, looked up: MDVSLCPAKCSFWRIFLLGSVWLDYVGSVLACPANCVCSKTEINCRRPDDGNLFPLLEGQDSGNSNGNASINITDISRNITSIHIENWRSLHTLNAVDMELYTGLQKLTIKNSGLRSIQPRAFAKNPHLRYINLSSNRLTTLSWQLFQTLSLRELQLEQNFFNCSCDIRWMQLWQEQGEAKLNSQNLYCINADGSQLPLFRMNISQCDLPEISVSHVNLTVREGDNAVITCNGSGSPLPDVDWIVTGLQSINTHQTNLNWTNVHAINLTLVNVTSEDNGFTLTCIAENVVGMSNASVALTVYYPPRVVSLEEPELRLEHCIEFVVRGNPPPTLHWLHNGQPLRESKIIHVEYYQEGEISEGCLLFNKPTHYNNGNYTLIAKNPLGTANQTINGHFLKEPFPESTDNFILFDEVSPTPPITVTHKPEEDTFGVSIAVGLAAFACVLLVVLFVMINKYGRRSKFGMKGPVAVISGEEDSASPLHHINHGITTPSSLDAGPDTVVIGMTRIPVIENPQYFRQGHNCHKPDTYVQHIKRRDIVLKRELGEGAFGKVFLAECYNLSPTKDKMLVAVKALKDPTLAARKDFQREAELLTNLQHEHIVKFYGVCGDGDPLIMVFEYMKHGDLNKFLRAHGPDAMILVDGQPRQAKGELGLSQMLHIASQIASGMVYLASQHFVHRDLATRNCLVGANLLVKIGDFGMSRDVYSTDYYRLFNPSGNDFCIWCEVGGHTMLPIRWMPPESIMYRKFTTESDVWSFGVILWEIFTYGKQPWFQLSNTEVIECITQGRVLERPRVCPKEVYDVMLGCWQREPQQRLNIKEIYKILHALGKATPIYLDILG
UniProt Q96KB5: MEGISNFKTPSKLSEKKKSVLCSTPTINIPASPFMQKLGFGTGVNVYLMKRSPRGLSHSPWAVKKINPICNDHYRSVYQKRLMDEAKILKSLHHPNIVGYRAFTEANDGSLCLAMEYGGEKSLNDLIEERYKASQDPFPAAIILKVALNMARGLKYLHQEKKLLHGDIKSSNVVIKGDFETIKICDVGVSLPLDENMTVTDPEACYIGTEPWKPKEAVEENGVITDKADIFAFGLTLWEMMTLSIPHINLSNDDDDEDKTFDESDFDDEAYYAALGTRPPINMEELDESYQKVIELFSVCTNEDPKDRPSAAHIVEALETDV
UniProt P09619, whole entry: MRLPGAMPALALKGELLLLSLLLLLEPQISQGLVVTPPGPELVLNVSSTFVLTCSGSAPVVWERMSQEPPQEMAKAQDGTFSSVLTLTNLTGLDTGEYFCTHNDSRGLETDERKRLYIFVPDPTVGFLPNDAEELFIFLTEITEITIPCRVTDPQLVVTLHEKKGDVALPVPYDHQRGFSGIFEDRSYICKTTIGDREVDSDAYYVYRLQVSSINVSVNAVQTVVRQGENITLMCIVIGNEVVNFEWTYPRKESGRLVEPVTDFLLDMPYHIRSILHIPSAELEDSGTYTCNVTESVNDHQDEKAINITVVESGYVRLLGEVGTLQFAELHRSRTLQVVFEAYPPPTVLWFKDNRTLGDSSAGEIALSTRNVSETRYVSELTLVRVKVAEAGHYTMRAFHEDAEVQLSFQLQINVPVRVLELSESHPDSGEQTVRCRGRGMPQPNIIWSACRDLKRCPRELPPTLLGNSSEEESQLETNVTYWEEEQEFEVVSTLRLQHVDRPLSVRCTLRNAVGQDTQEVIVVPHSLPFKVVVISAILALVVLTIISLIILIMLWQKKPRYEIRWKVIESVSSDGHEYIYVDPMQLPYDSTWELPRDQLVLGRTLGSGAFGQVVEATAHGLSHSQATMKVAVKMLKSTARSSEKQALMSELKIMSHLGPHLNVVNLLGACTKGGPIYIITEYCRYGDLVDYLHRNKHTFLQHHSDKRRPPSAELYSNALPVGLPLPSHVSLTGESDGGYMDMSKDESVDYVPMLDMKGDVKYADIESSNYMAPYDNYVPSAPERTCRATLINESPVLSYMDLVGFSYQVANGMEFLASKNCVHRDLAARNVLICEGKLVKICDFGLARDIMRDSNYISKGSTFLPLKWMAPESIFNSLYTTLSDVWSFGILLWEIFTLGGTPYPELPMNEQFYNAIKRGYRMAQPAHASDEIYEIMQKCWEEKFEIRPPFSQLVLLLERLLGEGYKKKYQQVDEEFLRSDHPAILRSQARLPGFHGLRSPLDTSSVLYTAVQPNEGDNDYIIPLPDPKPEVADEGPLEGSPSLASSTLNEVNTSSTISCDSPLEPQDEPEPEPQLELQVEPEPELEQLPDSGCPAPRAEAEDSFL
UniProt Q15118, whole entry, looked up: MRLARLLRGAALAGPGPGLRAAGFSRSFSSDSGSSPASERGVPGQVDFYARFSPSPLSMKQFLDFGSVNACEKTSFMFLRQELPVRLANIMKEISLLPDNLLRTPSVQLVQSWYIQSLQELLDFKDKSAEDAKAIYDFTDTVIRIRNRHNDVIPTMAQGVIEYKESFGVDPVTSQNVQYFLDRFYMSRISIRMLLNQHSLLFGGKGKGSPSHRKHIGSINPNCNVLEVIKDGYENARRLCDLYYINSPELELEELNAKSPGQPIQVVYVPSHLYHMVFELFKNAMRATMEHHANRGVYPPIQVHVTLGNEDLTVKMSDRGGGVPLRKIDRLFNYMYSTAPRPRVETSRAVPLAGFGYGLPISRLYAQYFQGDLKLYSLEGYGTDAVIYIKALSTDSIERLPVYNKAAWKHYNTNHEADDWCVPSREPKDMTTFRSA
UniProt O15530: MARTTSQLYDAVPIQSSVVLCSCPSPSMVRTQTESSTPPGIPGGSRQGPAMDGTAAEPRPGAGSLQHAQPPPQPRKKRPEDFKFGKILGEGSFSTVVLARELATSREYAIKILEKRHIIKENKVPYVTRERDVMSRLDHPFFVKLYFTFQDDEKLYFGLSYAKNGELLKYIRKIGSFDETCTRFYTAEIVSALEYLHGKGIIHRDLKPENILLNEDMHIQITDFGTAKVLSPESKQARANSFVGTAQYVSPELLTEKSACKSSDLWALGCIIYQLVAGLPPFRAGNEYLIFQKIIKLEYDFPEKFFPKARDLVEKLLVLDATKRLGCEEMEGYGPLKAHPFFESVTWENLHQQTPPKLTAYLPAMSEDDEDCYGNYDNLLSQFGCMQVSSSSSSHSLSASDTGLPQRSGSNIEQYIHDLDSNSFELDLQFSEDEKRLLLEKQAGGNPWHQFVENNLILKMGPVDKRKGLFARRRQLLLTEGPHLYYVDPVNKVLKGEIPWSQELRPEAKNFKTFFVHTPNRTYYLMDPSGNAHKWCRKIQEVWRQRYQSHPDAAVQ
UniProt Q05397, whole entry, looked up: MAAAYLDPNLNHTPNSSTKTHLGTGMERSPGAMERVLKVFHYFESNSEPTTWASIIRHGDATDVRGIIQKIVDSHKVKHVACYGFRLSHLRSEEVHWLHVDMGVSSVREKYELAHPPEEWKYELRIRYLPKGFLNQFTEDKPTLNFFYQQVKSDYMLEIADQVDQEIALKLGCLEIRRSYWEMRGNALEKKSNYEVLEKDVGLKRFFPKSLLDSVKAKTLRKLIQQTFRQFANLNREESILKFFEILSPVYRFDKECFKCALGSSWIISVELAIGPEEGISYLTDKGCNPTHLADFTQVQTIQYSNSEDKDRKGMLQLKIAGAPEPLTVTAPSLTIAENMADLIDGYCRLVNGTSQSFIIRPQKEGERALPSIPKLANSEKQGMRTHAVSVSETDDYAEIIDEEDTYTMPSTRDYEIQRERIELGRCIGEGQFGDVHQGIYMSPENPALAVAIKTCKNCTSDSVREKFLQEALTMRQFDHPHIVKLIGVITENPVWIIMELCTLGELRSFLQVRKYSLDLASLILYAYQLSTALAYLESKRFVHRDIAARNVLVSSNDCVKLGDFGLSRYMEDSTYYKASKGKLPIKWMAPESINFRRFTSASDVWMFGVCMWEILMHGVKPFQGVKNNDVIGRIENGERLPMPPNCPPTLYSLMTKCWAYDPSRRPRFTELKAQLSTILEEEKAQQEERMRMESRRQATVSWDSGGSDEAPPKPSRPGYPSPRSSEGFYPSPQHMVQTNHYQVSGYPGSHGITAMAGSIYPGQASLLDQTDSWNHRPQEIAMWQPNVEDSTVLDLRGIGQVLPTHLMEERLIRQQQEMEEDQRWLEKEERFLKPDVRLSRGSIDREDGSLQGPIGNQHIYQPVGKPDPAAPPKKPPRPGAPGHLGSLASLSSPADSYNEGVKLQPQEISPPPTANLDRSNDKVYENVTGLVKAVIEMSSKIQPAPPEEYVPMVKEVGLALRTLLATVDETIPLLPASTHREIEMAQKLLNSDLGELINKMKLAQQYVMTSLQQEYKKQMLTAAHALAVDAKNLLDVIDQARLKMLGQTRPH
UniProt Q14289, whole entry, looked up: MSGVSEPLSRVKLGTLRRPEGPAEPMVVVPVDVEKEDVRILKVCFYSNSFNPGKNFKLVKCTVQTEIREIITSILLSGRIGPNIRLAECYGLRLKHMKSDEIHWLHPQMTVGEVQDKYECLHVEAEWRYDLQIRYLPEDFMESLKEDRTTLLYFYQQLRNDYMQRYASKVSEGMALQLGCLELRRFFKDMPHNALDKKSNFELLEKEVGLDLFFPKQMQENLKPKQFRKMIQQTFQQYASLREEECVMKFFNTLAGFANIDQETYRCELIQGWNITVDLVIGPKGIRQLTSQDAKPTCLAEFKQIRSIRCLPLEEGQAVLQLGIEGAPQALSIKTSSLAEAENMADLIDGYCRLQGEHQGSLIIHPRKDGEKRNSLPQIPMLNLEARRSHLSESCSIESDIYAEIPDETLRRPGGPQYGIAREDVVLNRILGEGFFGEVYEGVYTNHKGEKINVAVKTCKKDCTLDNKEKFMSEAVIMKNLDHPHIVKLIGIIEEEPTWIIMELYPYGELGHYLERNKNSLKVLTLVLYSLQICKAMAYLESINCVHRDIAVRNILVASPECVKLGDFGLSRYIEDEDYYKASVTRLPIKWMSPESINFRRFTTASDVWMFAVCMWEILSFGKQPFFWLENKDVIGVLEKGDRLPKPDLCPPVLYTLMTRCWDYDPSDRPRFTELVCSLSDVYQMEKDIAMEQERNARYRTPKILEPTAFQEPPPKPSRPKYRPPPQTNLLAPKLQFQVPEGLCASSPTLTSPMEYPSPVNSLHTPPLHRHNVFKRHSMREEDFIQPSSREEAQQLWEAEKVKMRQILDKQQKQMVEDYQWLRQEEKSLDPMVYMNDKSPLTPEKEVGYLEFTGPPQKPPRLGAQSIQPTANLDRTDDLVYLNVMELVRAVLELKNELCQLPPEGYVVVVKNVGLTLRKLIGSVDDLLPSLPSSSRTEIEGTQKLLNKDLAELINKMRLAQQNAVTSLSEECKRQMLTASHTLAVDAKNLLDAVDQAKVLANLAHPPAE
UniProt P07949, whole entry, looked up: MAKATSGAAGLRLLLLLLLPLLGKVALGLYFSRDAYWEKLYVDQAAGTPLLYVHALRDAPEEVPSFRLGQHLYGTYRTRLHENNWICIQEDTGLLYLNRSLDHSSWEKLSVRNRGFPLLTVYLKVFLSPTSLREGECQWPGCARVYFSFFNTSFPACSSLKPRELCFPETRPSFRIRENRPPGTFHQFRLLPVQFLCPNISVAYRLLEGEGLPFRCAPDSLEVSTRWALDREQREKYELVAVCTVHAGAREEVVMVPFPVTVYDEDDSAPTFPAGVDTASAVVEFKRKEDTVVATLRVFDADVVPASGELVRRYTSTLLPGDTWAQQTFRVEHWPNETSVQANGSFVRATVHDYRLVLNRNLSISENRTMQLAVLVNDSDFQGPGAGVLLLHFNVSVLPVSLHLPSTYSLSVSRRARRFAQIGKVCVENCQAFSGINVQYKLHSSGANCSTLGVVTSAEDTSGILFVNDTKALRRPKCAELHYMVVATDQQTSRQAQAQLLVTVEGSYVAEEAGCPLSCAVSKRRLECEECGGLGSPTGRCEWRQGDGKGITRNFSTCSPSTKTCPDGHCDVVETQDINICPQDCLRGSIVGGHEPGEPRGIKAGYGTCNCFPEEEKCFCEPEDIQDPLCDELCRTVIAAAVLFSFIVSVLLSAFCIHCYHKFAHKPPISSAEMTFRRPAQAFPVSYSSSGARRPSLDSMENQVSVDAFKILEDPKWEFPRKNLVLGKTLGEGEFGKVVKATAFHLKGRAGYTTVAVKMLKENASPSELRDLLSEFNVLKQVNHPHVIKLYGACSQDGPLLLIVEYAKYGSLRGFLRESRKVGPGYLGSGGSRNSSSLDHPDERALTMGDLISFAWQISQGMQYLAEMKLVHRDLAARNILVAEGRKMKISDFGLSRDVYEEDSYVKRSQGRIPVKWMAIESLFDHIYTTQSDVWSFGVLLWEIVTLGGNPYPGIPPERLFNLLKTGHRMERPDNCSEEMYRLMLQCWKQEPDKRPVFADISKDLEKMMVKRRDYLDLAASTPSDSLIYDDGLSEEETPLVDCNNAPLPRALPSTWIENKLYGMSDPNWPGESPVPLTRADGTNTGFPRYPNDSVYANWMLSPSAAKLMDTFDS

Columns and labels:
Experiment in all cases: number of time points (of 5) at which kinase-Nluc abundance scored as decreased, DMSO-normalised (count); higher = more persistent destabilization
Conditions in all cases: K562; 2-18 h
[1] = molecular target: NTRK3 (UniProt Q16288)
[2] = molecular target: PAK4 (UniProt O96013)
[3] = molecular target: PBK (UniProt Q96KB5)
[4] = molecular target: PDGFRB (UniProt P09619)
[5] = molecular target: PDK1 (UniProt Q15118)
[6] = molecular target: PDPK1 (UniProt O15530)
[7] = molecular target: PIK4CA (UniProt P42356)
[8] = molecular target: PIK4CB (UniProt Q9UBF8)
[9] = molecular target: PLK1 (UniProt P53350)
[10] = molecular target: PRKAA1 (UniProt Q13131)
[11] = molecular target: PRKCA (UniProt P17252)
[12] = molecular target: PTK2 (UniProt Q05397)
[13] = molecular target: PTK2B (UniProt Q14289)
[14] = molecular target: RAF1 (UniProt P04049)
[15] = molecular target: RAF1_S257L (clone: RAF1_mut) (UniProt P04049)
[16] = molecular target: RET (UniProt P07949)
[17] = molecular target: RET_M918T (clone: RET_mut) (UniProt P07949)
[18] = molecular target: RIOK1 (UniProt Q9BRS2)
[19] = molecular target: RIPK1 (UniProt Q13546)
[20] = molecular target: RIPK2 (UniProt O43353)

| SMILES | number of time points [1] | number of time points [2] | number of time points [3] | number of time points [4] | number of time points [5] | number of time points [6] | number of time points [7] | number of time points [8] | number of time points [9] | number of time points [10] | number of time points [11] | number of time points [12] | number of time points [13] | number of time points [14] | number of time points [15] | number of time points [16] | number of time points [17] | number of time points [18] | number of time points [19] | number of time points [20] |
| --- | --- | --- | --- | --- | --- | --- | --- | --- | --- | --- | --- | --- | --- | --- | --- | --- | --- | --- | --- | --- |
| CCn1c(=O)c(-c2ccc(-c3cncs3)cc2Cl)cc2cnc(Nc3ccc(N4CCN(C)CC4)cc3)nc21 (2.5 µM) | 0 | 0 | 0 | 0 | 0 | 0 | 0 | 0 | 0 | 0 | 0 | 0 | 0 | 0 | 0 | 0 | 0 | 0 | 0 | 0 |
| Nc1ncnc2c1c(-c1ccc(Oc3ccccc3)cc1)nn2C1CCCNC1 (racemic) (2.5 µM) | 0 | 0 | 0 | 0 | 0 | 0 | 0 | 0 | 0 | 0 | 0 | 0 | 0 | 0 | 0 | 0 | 0 | 0 | 0 | 0 |
| COc1cc(S(C)(=O)=O)ccc1Nc1nc2ccc(-c3ccc(NC(=O)[C@H](C)c4ccc(F)cc4)cc3)cn2n1 [Empesertib] (10 µM) | 0 | 0 | 0 | 0 | 0 | 0 | 0 | 0 | 0 | 0 | 0 | 0 | 0 | 0 | 0 | 0 | 0 | 0 | 0 | 0 |
| O=c1oc2cc(O)ccc2c2ccccc12 [Urolithin B] (10 µM) | 0 | 0 | 0 | 0 | 0 | 0 | 0 | 0 | 0 | 0 | 0 | 0 | 0 | 0 | 0 | 0 | 0 | 0 | 0 | 0 |
| Cn1cc(-c2ccc(CNc3cc(-c4cnc5cc(OCCCN6CCCC6)ccn45)ncn3)cc2)cn1 (10 µM) | 0 | 0 | 0 | 0 | 0 | 0 | 0 | 0 | 0 | 0 | 0 | 0 | 0 | 0 | 0 | 0 | 0 | 0 | 0 | 0 |
| OC[C@H]1O[C@@H](Oc2cc3c(O)cc(O)cc3[o+]c2-c2cc(O)c(O)c(O)c2)[C@H](O)[C@@H](O)[C@@H]1O [Delphinidin 3-glucoside (chloride)] (10 µM) | 0 | 0 | 0 | 0 | 0 | 0 | 0 | 0 | 0 | 0 | 0 | 0 | 0 | 0 | 0 | 0 | 0 | 0 | 0 | 0 |
| Cc1cc(-c2cc(OC(=O)c3ccccc3)ccc2Cl)cc2nnc(Nc3ccc(OCCN4CCCC4)cc3)nc12 (0.5 µM) | 0 | 0 | 0 | 0 | 0 | 0 | 0 | 0 | 0 | 0 | 0 | 0 | 0 | 0 | 2 | 0 | 0 | 0 | 0 | 4 |
| Cc1cc([C@H](C)Nc2ccccc2)c2oc(N3CCOCC3)cc(=O)c2c1 (10 µM) | 0 | 0 | 0 | 0 | 0 | 0 | 0 | 0 | 0 | 0 | 0 | 0 | 0 | 0 | 0 | 0 | 0 | 0 | 0 | 0 |
| Fc1ccc(-c2nc(-c3c(F)cccc3F)[nH]c2-c2ccncc2)cc1 (10 µM) | 0 | 0 | 0 | 0 | 0 | 0 | 0 | 0 | 0 | 0 | 0 | 0 | 0 | 0 | 0 | 0 | 0 | 0 | 0 | 0 |
| Cc1ccc2nc(NC(=O)CSc3nc4c(c(=O)n3-c3ccccc3)SCC4)sc2c1 (2 µM) | 0 | 0 | 0 | 0 | 0 | 0 | 0 | 0 | 0 | 0 | 0 | 0 | 0 | 0 | 0 | 0 | 0 | 0 | 0 | 0 |
| C#CCN(C)C(=O)CCNc1nc(N2CCN(C(=O)C=C)CC2)c2cc(Cl)c(-c3c(O)cccc3F)c(F)c2n1 [ARS-1323-alkyne] (2.5 µM) | 0 | 0 | 0 | 0 | 0 | 0 | 0 | 0 | 0 | 0 | 0 | 0 | 0 | 0 | 0 | 0 | 0 | 0 | 0 | 0 |
| COc1ccc(C(=O)Nc2sc3c(c2C(N)=O)CCCC3)cc1OC (10 µM) | 0 | 0 | 0 | 0 | 0 | 0 | 0 | 0 | 0 | 0 | 0 | 0 | 0 | 0 | 0 | 0 | 0 | 0 | 0 | 0 |
| CC(C)=CCC[C@](C)(O[C@@H]1O[C@H](CO)[C@@H](O)[C@H](O)[C@H]1O)[C@H]1CC[C@]2(C)[C@@H]1[C@H](O)C[C@@H]1[C@@]3(C)CC[C@H](O)C(C)(C)[C@@H]3[C@@H](O[C@@H]3O[C@H](CO)[C@@H](O)[C@H](O)[C@H]3O[C@@H]3O[C@@H](C)[C@H](O)[C@@H](O)[C@H]3O)C[C@]12C [Ginsenoside Re] (10 µM) | 0 | 0 | 0 | 0 | 0 | 0 | 0 | 0 | 0 | 0 | 0 | 0 | 0 | 0 | 0 | 0 | 0 | 0 | 0 | 0 |
| C=C1C(=O)O[C@@H]2C[C@@]3(C)CCC[C@H](C)C3=C[C@H]12 [Alantolactone] (10 µM) | 0 | 0 | 0 | 0 | 0 | 0 | 0 | 0 | 0 | 0 | 0 | 0 | 0 | 0 | 0 | 0 | 0 | 0 | 0 | 0 |
| COC1(c2sc3c(N4CCOCC4)nc(-c4cnc(N)nc4)nc3c2C)COC1 (2.5 µM) | 0 | 0 | 0 | 0 | 0 | 0 | 0 | 0 | 0 | 0 | 0 | 2 | 0 | 0 | 0 | 0 | 0 | 0 | 0 | 0 |
| CNC(=O)Nc1ccc(-c2cc(-c3ccnc(Nc4ccc(C)c(S(=O)(=O)N(C)C)c4)n3)ccn2)cc1 [hSMG-1 inhibitor 11e] (2.5 µM) | 1 | 0 | 0 | 0 | 0 | 1 | 0 | 1 | 0 | 0 | 0 | 1 | 0 | 1 | 3 | 0 | 0 | 2 | 1 | 1 |
| Cc1c(CN2CCN(S(C)(=O)=O)CC2)sc2c(N3CCOCC3)nc(-c3cnc(N)nc3)nc12 (2.5 µM) | 0 | 0 | 0 | 0 | 0 | 0 | 0 | 0 | 0 | 0 | 0 | 3 | 0 | 0 | 0 | 0 | 0 | 0 | 0 | 0 |
| O=C1NC(=O)/C(=C/c2ccc3c(c2)OC(F)(F)O3)S1 (10 µM) | 0 | 0 | 0 | 0 | 0 | 0 | 0 | 0 | 0 | 0 | 0 | 0 | 0 | 0 | 0 | 0 | 0 | 0 | 0 | 0 |
| CN1CCN(c2ccc(C(=O)Nc3cc(-c4cccc(NS(=O)(=O)c5ccccc5)c4)[nH]n3)cc2)CC1 [BPR1J-097 Hydrochloride] (2.5 µM) | 0 | 0 | 0 | 0 | 0 | 0 | 0 | 0 | 0 | 0 | 0 | 0 | 0 | 0 | 1 | 0 | 0 | 0 | 0 | 0 |
| NC1(Cc2ccc(Cl)cc2)CCN(c2ncnc3[nH]ccc23)CC1 (10 µM) | 0 | 0 | 0 | 0 | 0 | 0 | 0 | 0 | 0 | 0 | 0 | 0 | 0 | 0 | 0 | 0 | 0 | 0 | 0 | 0 |
| O=C(NCCCNc1nc(Nc2cccc(NC(=O)N3CCCC3)c2)ncc1I)c1cccs1 (2.5 µM) | 0 | 0 | 0 | 0 | 0 | 0 | 0 | 0 | 0 | 0 | 0 | 0 | 0 | 0 | 0 | 0 | 0 | 0 | 0 | 0 |
| O=C(CNC(=O)c1ccc(-c2ccccc2)cc1)NC1CCCc2ccccc21 (stereo not given) [TAO Kinase inhibitor 1] (10 µM) | 0 | 0 | 0 | 0 | 0 | 0 | 0 | 0 | 0 | 0 | 0 | 0 | 0 | 0 | 0 | 0 | 0 | 0 | 0 | 0 |
| CNCc1ccccc1-c1csc([C@@H](C)Nc2nc(C)nc3cc(OC)c(OC)cc23)c1 (2.5 µM) | 0 | 0 | 0 | 0 | 0 | 0 | 0 | 0 | 2 | 0 | 0 | 0 | 0 | 0 | 2 | 0 | 0 | 1 | 1 | 0 |

2 compounds drawn at random from those above, as already listed:

| SMILES | number of time points [1] | number of time points [2] | number of time points [3] | number of time points [4] | number of time points [5] | number of time points [6] | number of time points [7] | number of time points [8] | number of time points [9] | number of time points [10] | number of time points [11] | number of time points [12] | number of time points [13] | number of time points [14] | number of time points [15] | number of time points [16] | number of time points [17] | number of time points [18] | number of time points [19] | number of time points [20] |
| --- | --- | --- | --- | --- | --- | --- | --- | --- | --- | --- | --- | --- | --- | --- | --- | --- | --- | --- | --- | --- |
| O=C(CNC(=O)c1ccc(-c2ccccc2)cc1)NC1CCCc2ccccc21 (stereo not given) [TAO Kinase inhibitor 1] (10 µM) | 0 | 0 | 0 | 0 | 0 | 0 | 0 | 0 | 0 | 0 | 0 | 0 | 0 | 0 | 0 | 0 | 0 | 0 | 0 | 0 |
| CNCc1ccccc1-c1csc([C@@H](C)Nc2nc(C)nc3cc(OC)c(OC)cc23)c1 (2.5 µM) | 0 | 0 | 0 | 0 | 0 | 0 | 0 | 0 | 2 | 0 | 0 | 0 | 0 | 0 | 2 | 0 | 0 | 1 | 1 | 0 |
